Part of at least one peptide drawing is inferred or uncertain, most often the ends. No end group written: not given here.
What was measured:
PAR4 (R47A) = target: T1, PAR4 (R47A) (Homo sapiens, UniProt Q96RI0, A120T/R47A); assay: phosphoinositide hydrolysis in COS cells expressing cleavage site mutant PAR4 (R47A); assay type: cell-based; details: 500 μM
T1 construct: expressed in transfected cells; host or cells: COS cells
T1 sequence (Q96RI0 18-385 R47A/A120T): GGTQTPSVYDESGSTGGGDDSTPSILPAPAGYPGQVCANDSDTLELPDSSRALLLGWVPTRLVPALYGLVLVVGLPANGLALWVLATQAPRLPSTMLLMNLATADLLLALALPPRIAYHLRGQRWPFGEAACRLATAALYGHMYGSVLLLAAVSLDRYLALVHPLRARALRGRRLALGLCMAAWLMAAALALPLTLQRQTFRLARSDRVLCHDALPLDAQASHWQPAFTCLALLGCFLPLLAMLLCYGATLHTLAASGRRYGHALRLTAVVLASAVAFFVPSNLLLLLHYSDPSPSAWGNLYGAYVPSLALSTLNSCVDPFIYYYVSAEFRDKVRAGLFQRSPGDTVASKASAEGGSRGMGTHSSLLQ
Procedure: COS cells were transiently transfected with PAR4 cDNA, and examined for responses to thrombin and trypsin. Briefly, for the phosphoinositide hydrolysis assay, COS-7 cells were grown in Dulbecco's modified Eagle's medium (DMEM; Gibco/BRL, Gaithersburg, Md.) with 10% fetal bovine serum (FBS). Cells were plated at 3.5×10^5/35-mm plate one day before transfection. Two μg of DNA were transfected using 12 μl of lipofectAMINE (Gibco/BRL) for 5 h. The cells were incubated overnight in DMEM with 10% FBS, and then split into triplicate 35-mm wells. Forty-eight hours after transfection, the cells were loaded with 2 μCi/ml [^3H]myo-inositol (Amersham, Arlington Heights, Ill.) in serum-free DMEM and incubated overnight at 37° C. Cells were washed and treated with 20 mM LiCl in DMEM, with or without protease or peptide activators added at various concentrations. Cells were then incubated for 2 h at 37° C. and extracted with 750 μl of 20 mM formic acid for 30 min on ice. The inositol mono-, bis-, and trisphosphates were purified through a one ml AG 1-X8 anion-exchange resin (Bio-Rad, Hercules, Calif.) (T. Nanevicz et al., J. Biol. Chem. 271:702–06, 1996), and quantitated by scintillation counting. In each hydrolysis assay, surface expression levels of receptors were determined in triplicate in parallel cultures. […]

[1] = system: COS cells with no transfected DNA; assay: phosphoinositide hydrolysis in COS cells with no transfected DNA; assay type: cell-based; details: same conditions (500 μM)

GYPGQV [GYPGQV]
activation of mutant PAR4 (R47A) by peptide (PAR4 (R47A)): readily activated
response of untransfected COS cells to activating peptide [1]: failed to respond

Reference: patent US7084253B2, “Protease-activated receptor PAR4 (ZCHEMR2)” (ZymoGenetics, Inc., priority 1998, dated 2006)
